# Some of the results follow.
# Columns and labels:
# Assay in all cases: glycan array binding signal (z-score within array); higher = stronger binding
# Conditions in all cases: glycan notation: IUPAC condensed, linker removed
# [1] = target: Gal(a1-4)Gal(b1-4)GlcNAc(b1-2)Man(a1-3)[Gal(a1-4)Gal(b1-4)GlcNAc(b1-2)Man(a1-6)]Man(b1-4)GlcNAc(b1-4)GlcNAc
# Procedure, shortened: (§1)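 Glycan array data came from 3228 arrays in the Consortium for Functional Glycomics database, and only arrays with an available protein sequence were kept. Glycan names were put into IUPAC-condensed notation, and columns mapping to the same glycan were averaged. The binding signal is a within-array Z-score, averaged across arrays of one protein sequence run at different concentrations or buffers and across linkers. A negative Z-score can be read as non-binding.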
# [2] = target: Gal(a1-4)Gal(b1-4)GlcNAc(b1-3)Gal(b1-4)Glc
# Procedure, shortened: as §1
# [3] = target: Gal(a1-4)GlcNAc
# Procedure, shortened: as §1
# [4] = target: Gal(a1-6)Glc
# Procedure, shortened: as §1
# [5] = target: Gal(b1-2)Gal
# Procedure, shortened: as §1
# [6] = target: Gal(b1-3)Gal
# Procedure, shortened: as §1
# [7] = target: Gal(b1-3)Gal(b1-4)GlcNAc
# Procedure, shortened: as §1
# [8] = target: Gal(b1-3)GalNAc
# Procedure, shortened: as §1
# [9] = target: Gal(b1-3)GalNAc(a1-3)[Fuc(a1-2)]Gal(b1-4)Glc
# Procedure, shortened: as §1
# [10] = target: Gal(b1-3)GalNAc(a1-3)[Fuc(a1-2)]Gal(b1-4)GlcNAc
# Procedure, shortened: as §1
# [11] = target: Gal(b1-3)GalNAc(b1-3)Gal
# Procedure, shortened: as §1
# [12] = target: Gal(b1-3)GalNAc(b1-3)Gal(a1-4)Gal(b1-4)Glc
# Procedure, shortened: as §1
# [13] = target: Gal(b1-3)GalNAc(b1-4)Gal(b1-4)Glc
# Procedure, shortened: as §1
# [14] = target: Gal(b1-3)GalNAc(b1-4)[Neu5Ac(a2-3)]Gal(b1-4)Glc
# Procedure, shortened: as §1
# [15] = target: Gal(b1-3)GlcNAc
# Procedure, shortened: as §1
# [16] = target: Gal(b1-3)GlcNAc(a1-3)Gal(b1-4)GlcNAc
# Procedure, shortened: as §1
# [17] = target: Gal(b1-3)GlcNAc(a1-6)Gal(b1-4)GlcNAc
# Procedure, shortened: as §1
# [18] = target: Gal(b1-3)GlcNAc(b1-2)Man
# Procedure, shortened: as §1
# [19] = target: Gal(b1-3)GlcNAc(b1-2)Man(a1-3)[Gal(b1-3)GlcNAc(b1-2)Man(a1-6)]Man(b1-4)GlcNAc(b1-4)GlcNAc
# Procedure, shortened: as §1
# [20] = target: Gal(b1-3)GlcNAc(b1-2)Man(a1-3)[Gal(b1-3)GlcNAc(b1-2)Man(a1-6)]Man(b1-4)GlcNAc(b1-4)[Fuc(a1-6)]GlcNAc
# Procedure, shortened: as §1
# [21] = target: Gal(b1-3)GlcNAc(b1-2)Man(a1-3)[GlcNAc(b1-4)][Gal(b1-3)GlcNAc(b1-2)Man(a1-6)]Man(b1-4)GlcNAc(b1-4)GlcNAc
# Procedure, shortened: as §1
# [22] = target: Gal(b1-3)GlcNAc(b1-2)[Gal(b1-3)GlcNAc(b1-6)]Man(a1-6)[Gal(b1-3)GlcNAc(b1-2)Man(a1-3)]Man(b1-4)GlcNAc(b1-4)GlcNAc
# Procedure, shortened: as §1
# [23] = target: Gal(b1-3)GlcNAc(b1-3)Gal(b1-3)GlcNAc
# Procedure, shortened: as §1
# [24] = target: Gal(b1-3)GlcNAc(b1-3)Gal(b1-4)Glc
# Procedure, shortened: as §1
# [25] = target: Gal(b1-3)GlcNAc(b1-3)Gal(b1-4)GlcNAc
# Procedure, shortened: as §1
# [26] = target: Gal(b1-3)GlcNAc(b1-3)Gal(b1-4)GlcNAc(b1-2)Man(a1-3)[Gal(b1-3)GlcNAc(b1-3)Gal(b1-4)GlcNAc(b1-2)Man(a1-6)]Man(b1-4)GlcNAc(b1-4)GlcNAc
# Procedure, shortened: as §1
# [27] = target: Gal(b1-3)GlcNAc(b1-3)Gal(b1-4)GlcNAc(b1-2)[Gal(b1-3)GlcNAc(b1-3)Gal(b1-4)GlcNAc(b1-6)]Man(a1-6)[Gal(b1-3)GlcNAc(b1-3)Gal(b1-4)GlcNAc(b1-2)Man(a1-3)]Man(b1-4)GlcNAc(b1-4)[Fuc(a1-6)]GlcNAc
# Procedure, shortened: as §1
# [28] = target: Gal(b1-3)GlcNAc(b1-3)Gal(b1-4)GlcNAc(b1-3)Gal(b1-4)GlcNAc(b1-2)[Gal(b1-3)GlcNAc(b1-3)Gal(b1-4)GlcNAc(b1-3)Gal(b1-4)GlcNAc(b1-6)]Man(a1-6)[Gal(b1-3)GlcNAc(b1-3)Gal(b1-4)GlcNAc(b1-3)Gal(b1-4)GlcNAc(b1-2)Man(a1-3)]Man(b1-4)GlcNAc(b1-4)[Fuc(a1-6)]GlcNAc
# Procedure, shortened: as §1
# [29] = target: Gal(b1-3)GlcNAc(b1-3)Gal(b1-4)GlcNAc(b1-6)[Gal(b1-3)GlcNAc(b1-3)]Gal(b1-4)Glc
# Procedure, shortened: as §1
# [30] = target: Gal(b1-3)GlcNAc(b1-3)Gal(b1-4)[Fuc(a1-3)]GlcNAc
# Procedure, shortened: as §1
# [31] = target: Gal(b1-3)GlcNAc(b1-3)Gal(b1-4)[Fuc(a1-3)]GlcNAc(b1-6)[Gal(b1-3)GlcNAc(b1-3)]Gal(b1-4)Glc
# Procedure, shortened: as §1
# [32] = target: Gal(b1-3)GlcNAc(b1-3)GalNAc
# Procedure, shortened: as §1
# [33] = target: Gal(b1-3)GlcNAc(b1-6)Gal(b1-4)GlcNAc
# Procedure, shortened: as §1
# [34] = target: Gal(b1-3)GlcNAc(b1-6)GalNAc
# Procedure, shortened: as §1
# [35] = target: Gal(b1-3)GlcNAc(b1-6)[Gal(b1-3)]GalNAc
# Procedure, shortened: as §1
# [36] = target: Gal(b1-3)GlcNAc6S
# Procedure, shortened: as §1
# [37] = target: Gal(b1-3)[Fuc(a1-4)]GlcNAc
# Procedure, shortened: as §1
# [38] = target: Gal(b1-3)[Fuc(a1-4)]GlcNAc(b1-2)Man
# Procedure, shortened: as §1
# [39] = target: Gal(b1-3)[Fuc(a1-4)]GlcNAc(b1-2)Man(a1-3)[Gal(b1-3)[Fuc(a1-4)]GlcNAc(b1-2)Man(a1-6)]Man(b1-4)GlcNAc(b1-4)[Fuc(a1-6)]GlcNAc
# Procedure, shortened: as §1
# [40] = target: Gal(b1-3)[Fuc(a1-4)]GlcNAc(b1-3)Gal(b1-3)[Fuc(a1-4)]GlcNAc
# Procedure, shortened: as §1
# [41] = target: Gal(b1-3)[Fuc(a1-4)]GlcNAc(b1-3)Gal(b1-4)GlcNAc
# Procedure, shortened: as §1
# [42] = target: Gal(b1-3)[Fuc(a1-4)]GlcNAc(b1-3)Gal(b1-4)[Fuc(a1-3)]GlcNAc
# Procedure, shortened: as §1
# [43] = target: Gal(b1-3)[Fuc(a1-4)]GlcNAc(b1-6)GalNAc
# Procedure, shortened: as §1
# [44] = target: Gal(b1-3)[GlcNAc(b1-6)]GalNAc
# Procedure, shortened: as §1
# [45] = target: Gal(b1-3)[Neu5Ac(a2-6)]GalNAc
# Procedure, shortened: as §1
binder,measurement,setting,value
"Endo180d1-D4 (Homo sapiens), Q9UBG0 (protein) MGPGRPAPAPWPRHLLRCVLLLGCLHLGRPGAPGDAALPEPNVFLIFSHGLQGCLEAQGGQVRVTPACNTSLPAQRWKWVSRNRLFNLGTMQCLGTGWPGTNTTASLGMYECDREALNLRWHCRTLGDQLSLLLGARTSNISKPGTLERGDQTRSGQWRIYGSEEDLCALPYHEVYTIQGNSHGKPCTIPFKYDNQWFHGCTSTGREDGHLWCATTQDYGKDERWGFCPIKSNDCETFWDKDQLTDSCYQFNFQSTLSWREAWASCEQQGADLLSITEIHEQTYINGLLTGYSSTLWIGLNDLDTSGGWQWSDNSPLKYLNWESDQPDNPSEENCGVIRTESSGGWQNRDCSIALPYVCKKKPNATAEPTPPDRWANVKVECEPSWQPFQGHCYRLQAEKRSWQESKKACLRGGGDLVSIHSMAELEFITKQIKQEVEELWIGLNDLKLQMNFEWSDGSLVSFTHWHPFEPNNFRDSLEDCVTIWGPEGRWNDSPCNQSLPSICKKAGQLSQGAAEEDHGCRKGWTWHSPSCYWLGEDQVTYSEARRLCTDHGSQLVTITNRFEQAFVSSLIYNWEGEYFWTALQDLNSTGSFFWLSGDEVMYTHWNRDQPGYSRGGCVALATGSAMGLWEVKNCTSFRARYICRQSLGTPVTPELPGPDPTPSLTGSCPQGWASDTKLRYCYKVFSSERLQDKKSWVQAQGACQELGAQLLSLASYEEEHFVANMLNKIFGESEPEIHEQHWFWIGLNRRDPRGGQSWRWSDGVGFSYHNFDRSRHDDDDIRGCAVLDLASLQWVAMQCDTQLDWICKIPRGTDVREPDDSPQGRREWLRFQEAEYKFFEHHSTWAQAQRICTWFQAELTSVHSQAELDFLSHNLQKFSRAQEQHWWIGLHTSESDGRFRWTDGSIINFISWAPGKPRPVGKDKKCVYMTASREDWGDQRCLTALPYICKRSNVTKETQPPDLPTTALGGCPSDWIQFLNKCFQVQGQEPQSRVKWSEAQFSCEQQEAQLVTITNPLEQAFITASLPNVTFDLWIGLHASQRDFQWVEQEPLMYANWAPGEPSGPSPAPSGNKPTSCAVVLHSPSAHFTGRWDDRSCTEETHGFICQKGTDPSLSPSPAALPPAPGTELSYLNGTFRLLQKPLRWHDALLLCESHNASLAYVPDPYTQAFLTQAARGLRTPLWIGLAGEEGSRRYSWVSEEPLNYVGWQDGEPQQPGGCTYVDVDGAWRTTSCDTKLQGAVCGVSSGPPPPRRISYHGSCPQGLADSAWIPFREHCYSFHMELLLGHKEARQRCQRAGGAVLSILDEMENVFVWEHLQSYEGQSRGAWLGMNFNPKGGTLVWQDNTAVNYSNWGPPGLGPSMLSHNSCYWIQSNSGLWRPGACTNITMGVVCKLPRAEQSSFSPSALPENPAALVVVLMAVLLLLALLTAALILYRRRQSIERGAFEGARYSRSSSSPTEATEKNILVSDMEMNEQQE",glycan array binding signal (z-score),[1],-0.187
same,glycan array binding signal (z-score),[2],-0.136
same,glycan array binding signal (z-score),[3],-0.552
same,glycan array binding signal (z-score),[4],0.11
same,glycan array binding signal (z-score),[5],0.723
same,glycan array binding signal (z-score),[6],0.074
same,glycan array binding signal (z-score),[7],0.793
same,glycan array binding signal (z-score),[8],-0.002
same,glycan array binding signal (z-score),[9],-0.502
same,glycan array binding signal (z-score),[10],-1.31
same,glycan array binding signal (z-score),[11],-0.308
same,glycan array binding signal (z-score),[12],-0.318
same,glycan array binding signal (z-score),[13],-0.447
same,glycan array binding signal (z-score),[14],-0.221
same,glycan array binding signal (z-score),[15],0.059
same,glycan array binding signal (z-score),[16],0.387
same,glycan array binding signal (z-score),[17],-0.239
same,glycan array binding signal (z-score),[18],0.202
same,glycan array binding signal (z-score),[19],-0.269
same,glycan array binding signal (z-score),[20],0.338
same,glycan array binding signal (z-score),[21],-0.241
same,glycan array binding signal (z-score),[22],0.904
same,glycan array binding signal (z-score),[23],-0.695
same,glycan array binding signal (z-score),[24],-0.601
same,glycan array binding signal (z-score),[25],0.189
same,glycan array binding signal (z-score),[26],-0.535
same,glycan array binding signal (z-score),[27],-0.821
same,glycan array binding signal (z-score),[28],0.339
same,glycan array binding signal (z-score),[29],0.002
same,glycan array binding signal (z-score),[30],0.312
same,glycan array binding signal (z-score),[31],-0.247
same,glycan array binding signal (z-score),[32],-0.378
same,glycan array binding signal (z-score),[33],-0.754
same,glycan array binding signal (z-score),[34],1.49
same,glycan array binding signal (z-score),[35],-0.544
same,glycan array binding signal (z-score),[36],-0.333
same,glycan array binding signal (z-score),[37],-0.273
same,glycan array binding signal (z-score),[38],0.495
same,glycan array binding signal (z-score),[39],-0.269
same,glycan array binding signal (z-score),[40],3.87
same,glycan array binding signal (z-score),[41],-0.188
same,glycan array binding signal (z-score),[42],-0.181
same,glycan array binding signal (z-score),[43],0.211
same,glycan array binding signal (z-score),[44],-0.385
same,glycan array binding signal (z-score),[45],0.102

# Source: the supplement of paper PMC8728848
